Some of the results follow.
Experiments:
Test in all cases: log2 fold change, soluble protein after heating vs DMSO (PISA); higher = thermal stabilisation; K562 lysate, 10 uM; active = over 0.2 and 3.5 SD of the protein, either way, in both replicates (recomputed)
erlotinib = compound: C#Cc1cccc(Nc2ncnc3cc(OCCOC)c(OCCOC)cc23)c1 [erlotinib]
Summary of the method: (§1)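 K562 pellets were dounce-homogenised in PBS pH 7.4 containing 1 mM MgCl2, and the crude extract, at 1 mg/mL protein, was exposed to 10 μM compound for 30 min. Aliquots were heated for 3 min across 48°C-58°C, pooled, brought to 0.5% NP-40 at 4°C and spun at 21,000xg for 90 min, with the supernatant taken as soluble protein. TMTpro 16plex LC-MS/MS with equalised channel sums quantified that protein. Values are log-two fold changes in thermal stability relative to solvent controls, taken from duplicates.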

By UniProt entry, the sequences of proteins in these tests, tags left out. Where a name states a change or a piece, a line headed by the entry shows the natural chain unless it says otherwise.
UniProt Q5JTV8: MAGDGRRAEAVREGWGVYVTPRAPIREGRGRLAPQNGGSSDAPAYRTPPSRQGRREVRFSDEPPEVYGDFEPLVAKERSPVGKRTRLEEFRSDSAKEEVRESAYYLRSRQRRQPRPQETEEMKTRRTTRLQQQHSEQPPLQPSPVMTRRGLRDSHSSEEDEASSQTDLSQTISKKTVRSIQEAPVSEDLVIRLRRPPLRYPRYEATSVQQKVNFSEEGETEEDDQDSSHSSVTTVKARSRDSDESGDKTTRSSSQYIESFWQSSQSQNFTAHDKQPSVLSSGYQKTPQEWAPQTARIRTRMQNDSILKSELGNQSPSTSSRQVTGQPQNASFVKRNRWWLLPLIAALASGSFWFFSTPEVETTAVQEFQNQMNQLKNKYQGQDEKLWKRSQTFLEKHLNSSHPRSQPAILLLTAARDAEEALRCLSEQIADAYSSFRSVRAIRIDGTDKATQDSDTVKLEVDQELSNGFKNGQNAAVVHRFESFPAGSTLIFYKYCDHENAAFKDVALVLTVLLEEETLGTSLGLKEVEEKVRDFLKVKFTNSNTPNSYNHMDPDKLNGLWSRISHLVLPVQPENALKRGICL
UniProt P13693: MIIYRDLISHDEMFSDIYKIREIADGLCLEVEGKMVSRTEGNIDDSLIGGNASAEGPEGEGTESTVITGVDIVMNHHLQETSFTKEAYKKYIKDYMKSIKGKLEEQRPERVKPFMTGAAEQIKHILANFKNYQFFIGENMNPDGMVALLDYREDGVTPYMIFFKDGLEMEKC
UniProt P06753, whole entry, looked up: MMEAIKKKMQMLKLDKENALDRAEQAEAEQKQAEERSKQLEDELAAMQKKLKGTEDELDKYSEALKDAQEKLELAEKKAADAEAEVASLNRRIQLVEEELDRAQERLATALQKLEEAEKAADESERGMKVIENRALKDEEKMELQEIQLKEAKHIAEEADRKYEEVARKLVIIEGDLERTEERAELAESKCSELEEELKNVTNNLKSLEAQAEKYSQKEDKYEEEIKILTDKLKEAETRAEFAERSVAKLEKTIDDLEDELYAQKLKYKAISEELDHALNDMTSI
UniProt Q9BUB7: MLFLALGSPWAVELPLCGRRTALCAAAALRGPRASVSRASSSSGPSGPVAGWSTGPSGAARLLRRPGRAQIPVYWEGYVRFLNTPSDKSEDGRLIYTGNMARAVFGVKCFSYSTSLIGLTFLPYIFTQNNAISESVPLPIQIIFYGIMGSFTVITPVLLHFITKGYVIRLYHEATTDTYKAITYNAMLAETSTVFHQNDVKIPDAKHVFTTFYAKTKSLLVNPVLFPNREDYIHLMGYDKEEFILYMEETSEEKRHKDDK
UniProt Q8NCS4: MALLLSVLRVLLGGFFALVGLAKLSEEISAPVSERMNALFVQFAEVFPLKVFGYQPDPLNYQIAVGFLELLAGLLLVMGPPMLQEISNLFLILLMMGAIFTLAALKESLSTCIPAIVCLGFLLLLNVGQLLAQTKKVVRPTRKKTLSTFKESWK
UniProt Q9NWD8: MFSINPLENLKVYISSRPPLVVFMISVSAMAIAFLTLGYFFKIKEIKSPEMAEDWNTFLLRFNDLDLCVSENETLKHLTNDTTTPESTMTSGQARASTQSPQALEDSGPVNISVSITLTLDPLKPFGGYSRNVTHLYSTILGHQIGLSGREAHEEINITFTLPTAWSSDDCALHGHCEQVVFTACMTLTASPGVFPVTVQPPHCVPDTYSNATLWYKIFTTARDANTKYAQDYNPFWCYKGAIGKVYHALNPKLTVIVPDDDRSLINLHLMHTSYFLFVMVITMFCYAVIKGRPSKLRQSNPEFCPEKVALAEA
UniProt Q9HCN3: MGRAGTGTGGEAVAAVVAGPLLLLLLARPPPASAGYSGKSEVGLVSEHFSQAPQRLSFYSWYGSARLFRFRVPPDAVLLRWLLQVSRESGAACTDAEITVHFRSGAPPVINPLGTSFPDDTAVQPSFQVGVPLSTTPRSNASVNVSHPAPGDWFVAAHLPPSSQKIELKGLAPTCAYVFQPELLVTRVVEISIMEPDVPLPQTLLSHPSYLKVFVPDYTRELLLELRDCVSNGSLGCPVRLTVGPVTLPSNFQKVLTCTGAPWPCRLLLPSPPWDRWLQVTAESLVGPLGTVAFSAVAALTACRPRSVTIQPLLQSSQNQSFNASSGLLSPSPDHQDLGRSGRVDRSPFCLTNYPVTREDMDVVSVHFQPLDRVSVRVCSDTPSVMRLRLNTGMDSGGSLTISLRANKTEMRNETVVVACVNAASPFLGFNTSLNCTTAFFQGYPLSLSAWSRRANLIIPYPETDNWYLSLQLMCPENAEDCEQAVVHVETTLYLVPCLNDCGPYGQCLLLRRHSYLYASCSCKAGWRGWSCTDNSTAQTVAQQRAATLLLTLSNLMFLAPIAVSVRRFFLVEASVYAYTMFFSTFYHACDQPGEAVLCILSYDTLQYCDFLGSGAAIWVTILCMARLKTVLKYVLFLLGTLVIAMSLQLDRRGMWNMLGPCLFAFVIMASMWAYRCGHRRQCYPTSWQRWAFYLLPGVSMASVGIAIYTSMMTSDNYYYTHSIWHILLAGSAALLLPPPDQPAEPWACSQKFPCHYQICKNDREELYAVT
UniProt Q9NS69: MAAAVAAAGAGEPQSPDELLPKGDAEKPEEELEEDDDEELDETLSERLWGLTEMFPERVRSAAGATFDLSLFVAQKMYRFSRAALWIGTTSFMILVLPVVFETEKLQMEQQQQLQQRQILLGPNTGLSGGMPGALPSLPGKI
UniProt O14657: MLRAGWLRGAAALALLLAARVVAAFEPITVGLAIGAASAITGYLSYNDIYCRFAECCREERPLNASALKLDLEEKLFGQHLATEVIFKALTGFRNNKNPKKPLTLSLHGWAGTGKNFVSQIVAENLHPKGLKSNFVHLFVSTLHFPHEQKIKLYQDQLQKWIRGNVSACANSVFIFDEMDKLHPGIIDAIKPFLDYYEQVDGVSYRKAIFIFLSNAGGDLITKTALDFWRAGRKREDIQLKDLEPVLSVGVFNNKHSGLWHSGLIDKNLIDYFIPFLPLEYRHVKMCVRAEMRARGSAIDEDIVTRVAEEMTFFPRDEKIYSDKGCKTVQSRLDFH
UniProt Q6ZT21: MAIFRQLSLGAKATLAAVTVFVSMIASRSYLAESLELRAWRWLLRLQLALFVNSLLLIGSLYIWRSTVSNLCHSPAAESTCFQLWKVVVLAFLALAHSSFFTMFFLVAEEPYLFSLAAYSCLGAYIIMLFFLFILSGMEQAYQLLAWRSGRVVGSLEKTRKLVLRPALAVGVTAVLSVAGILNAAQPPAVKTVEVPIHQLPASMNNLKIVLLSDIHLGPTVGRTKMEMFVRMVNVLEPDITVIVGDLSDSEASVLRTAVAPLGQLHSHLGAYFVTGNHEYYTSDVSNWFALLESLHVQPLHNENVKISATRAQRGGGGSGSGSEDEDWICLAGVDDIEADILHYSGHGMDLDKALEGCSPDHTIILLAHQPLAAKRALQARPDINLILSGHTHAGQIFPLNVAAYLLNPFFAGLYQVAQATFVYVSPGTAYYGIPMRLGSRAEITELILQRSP
UniProt Q9HBL0: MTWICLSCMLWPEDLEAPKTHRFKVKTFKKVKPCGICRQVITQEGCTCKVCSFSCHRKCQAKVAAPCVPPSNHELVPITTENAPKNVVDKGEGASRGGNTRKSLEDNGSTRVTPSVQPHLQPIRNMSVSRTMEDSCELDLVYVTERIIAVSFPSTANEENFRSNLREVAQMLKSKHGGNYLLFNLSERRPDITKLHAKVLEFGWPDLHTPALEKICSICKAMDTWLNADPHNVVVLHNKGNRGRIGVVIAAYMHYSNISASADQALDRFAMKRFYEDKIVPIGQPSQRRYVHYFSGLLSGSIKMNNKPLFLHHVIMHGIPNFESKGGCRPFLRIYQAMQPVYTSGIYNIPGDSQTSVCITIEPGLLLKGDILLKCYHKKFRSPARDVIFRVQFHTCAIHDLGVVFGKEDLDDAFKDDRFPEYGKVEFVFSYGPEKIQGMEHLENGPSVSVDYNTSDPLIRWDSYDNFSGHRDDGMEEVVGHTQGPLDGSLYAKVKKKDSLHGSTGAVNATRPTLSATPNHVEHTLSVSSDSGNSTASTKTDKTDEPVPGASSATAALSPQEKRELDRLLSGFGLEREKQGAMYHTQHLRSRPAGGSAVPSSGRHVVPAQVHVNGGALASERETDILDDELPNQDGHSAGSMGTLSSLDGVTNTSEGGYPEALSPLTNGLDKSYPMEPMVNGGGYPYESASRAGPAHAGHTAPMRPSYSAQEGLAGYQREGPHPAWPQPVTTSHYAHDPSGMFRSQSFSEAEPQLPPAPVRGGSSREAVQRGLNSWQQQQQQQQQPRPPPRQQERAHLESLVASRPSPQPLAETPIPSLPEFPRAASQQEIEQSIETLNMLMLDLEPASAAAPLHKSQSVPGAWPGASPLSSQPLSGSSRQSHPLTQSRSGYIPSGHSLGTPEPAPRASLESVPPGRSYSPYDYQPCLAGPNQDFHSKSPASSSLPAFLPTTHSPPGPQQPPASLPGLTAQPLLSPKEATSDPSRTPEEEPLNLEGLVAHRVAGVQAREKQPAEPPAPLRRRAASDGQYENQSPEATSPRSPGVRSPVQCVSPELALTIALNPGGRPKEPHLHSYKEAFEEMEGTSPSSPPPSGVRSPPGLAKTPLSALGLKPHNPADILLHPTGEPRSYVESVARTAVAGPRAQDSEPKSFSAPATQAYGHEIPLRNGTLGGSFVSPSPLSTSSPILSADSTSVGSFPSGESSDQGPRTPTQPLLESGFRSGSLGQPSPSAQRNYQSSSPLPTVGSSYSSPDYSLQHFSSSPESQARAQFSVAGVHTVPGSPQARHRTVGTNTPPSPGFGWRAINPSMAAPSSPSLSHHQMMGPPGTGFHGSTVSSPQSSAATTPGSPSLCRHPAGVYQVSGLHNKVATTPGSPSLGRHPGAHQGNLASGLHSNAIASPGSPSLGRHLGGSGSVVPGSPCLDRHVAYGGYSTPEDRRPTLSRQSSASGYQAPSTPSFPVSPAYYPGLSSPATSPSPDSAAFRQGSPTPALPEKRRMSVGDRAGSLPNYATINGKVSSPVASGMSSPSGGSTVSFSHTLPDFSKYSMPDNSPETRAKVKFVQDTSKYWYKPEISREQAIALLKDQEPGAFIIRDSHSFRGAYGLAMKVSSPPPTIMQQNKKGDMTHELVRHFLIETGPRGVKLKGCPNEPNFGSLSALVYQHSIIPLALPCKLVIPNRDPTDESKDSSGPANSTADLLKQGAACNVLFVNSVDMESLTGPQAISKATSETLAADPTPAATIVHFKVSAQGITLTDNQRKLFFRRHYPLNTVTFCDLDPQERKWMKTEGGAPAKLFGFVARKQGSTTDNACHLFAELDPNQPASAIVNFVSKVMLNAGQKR
UniProt Q0VDI3: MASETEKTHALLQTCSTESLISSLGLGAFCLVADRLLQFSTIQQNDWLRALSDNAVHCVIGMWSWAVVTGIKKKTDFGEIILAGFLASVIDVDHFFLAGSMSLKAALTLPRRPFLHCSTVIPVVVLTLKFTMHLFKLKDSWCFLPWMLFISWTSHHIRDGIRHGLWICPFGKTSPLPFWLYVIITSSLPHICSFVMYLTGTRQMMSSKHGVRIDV
UniProt A5PLL7: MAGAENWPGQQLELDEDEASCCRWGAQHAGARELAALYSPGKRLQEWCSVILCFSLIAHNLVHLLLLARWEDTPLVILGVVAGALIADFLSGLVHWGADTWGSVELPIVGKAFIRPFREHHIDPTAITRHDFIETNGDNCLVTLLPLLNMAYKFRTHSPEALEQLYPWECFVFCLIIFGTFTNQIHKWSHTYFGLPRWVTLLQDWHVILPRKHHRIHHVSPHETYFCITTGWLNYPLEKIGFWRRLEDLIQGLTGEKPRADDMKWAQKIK
UniProt P21580: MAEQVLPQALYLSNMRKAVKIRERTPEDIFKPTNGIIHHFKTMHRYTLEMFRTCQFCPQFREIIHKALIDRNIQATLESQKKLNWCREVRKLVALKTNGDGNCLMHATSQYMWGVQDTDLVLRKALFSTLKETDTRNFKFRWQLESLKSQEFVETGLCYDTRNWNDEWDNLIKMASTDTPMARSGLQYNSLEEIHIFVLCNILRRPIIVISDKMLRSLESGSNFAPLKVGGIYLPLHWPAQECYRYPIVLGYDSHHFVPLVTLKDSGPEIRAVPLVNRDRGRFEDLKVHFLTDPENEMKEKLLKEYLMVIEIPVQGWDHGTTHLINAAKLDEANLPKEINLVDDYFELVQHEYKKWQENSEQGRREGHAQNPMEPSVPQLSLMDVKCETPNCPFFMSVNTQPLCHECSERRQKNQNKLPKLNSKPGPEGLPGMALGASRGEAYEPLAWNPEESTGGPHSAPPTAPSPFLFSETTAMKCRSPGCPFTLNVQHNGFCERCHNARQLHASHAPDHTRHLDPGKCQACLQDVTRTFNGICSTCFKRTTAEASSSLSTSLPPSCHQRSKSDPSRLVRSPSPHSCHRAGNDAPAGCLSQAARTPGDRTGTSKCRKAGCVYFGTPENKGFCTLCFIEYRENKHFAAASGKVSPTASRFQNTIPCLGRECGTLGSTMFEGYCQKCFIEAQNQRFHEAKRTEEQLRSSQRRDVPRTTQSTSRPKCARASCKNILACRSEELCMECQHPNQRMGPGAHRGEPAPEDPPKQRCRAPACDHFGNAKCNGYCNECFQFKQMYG

[1] = compound: C/C(=N\NC(=O)C1=CC(=CC=C1)S(=O)(=O)N2CCOCC2)/C3=C(C=CC(=C3)Cl)O
Summary of the method: as §1

[2] = compound: C1=CC(=CC=C1C2=NC3=C(N2)C=C(C=C3)C(=O)N)OC4=CC=C(C=C4)Cl
Summary of the method: as §1

[3] = compound: C1=CC2=C(C=CC(=C2)/C=C\3/C(=O)NC(=NCC4=CC=CS4)S3)N=C1
Summary of the method: as §1

[4] = compound: C1=CC2=NC=CN=C2C=C1/C=C/3\C(=O)NC(=O)S3
Summary of the method: as §1

[5] = compound: C1=CC=C(C=C1)C2=NC(=C(N2)C3=CC=NC=C3)C4=CC(=C(C=C4)Cl)O
Summary of the method: as §1

[6] = compound: C1=CC=C2C(=C1)C3=NNC4=CC=CC(=C43)C2=O
Summary of the method: as §1

[7] = compound: C1CCN(C1)C(=O)NC2=CC=CC(=C2)NC3=NC=C(C(=N3)NCCC4=CN=CN4)Br
Summary of the method: as §1

[8] = compound: C1CN(CCC1(CC2=CC=C(C=C2)Cl)N)C3=NC=NC4=C3C=CN4
Summary of the method: as §1

IRAK-1-4 Inhibitor I = compound: C1COCCN1CCN2C3=CC=CC=C3N=C2NC(=O)C4=CC(=CC=C4)[N+](=O)[O-] [IRAK-1-4 Inhibitor I]
Summary of the method: as §1

ibrutinib = compound: C=CC(=O)N1CCC[C@@H](n2nc(-c3ccc(Oc4ccccc4)cc3)c3c(N)ncnc32)C1 [ibrutinib]
Summary of the method: as §1

[9] = compound: CC(=O)c1cnc2ccc(-c3cc(Cl)c(O)c(Cl)c3)nc2c1N[C@H]1CC[C@H](CN(C)C)CC1
Summary of the method: as §1

ralimetinib = compound: CC(C)(C)Cn1c(N)nc2ccc(-c3[nH]c(C(C)(C)C)nc3-c3ccc(F)cc3)nc21 [ralimetinib]
Summary of the method: as §1

[10] = compound: CC(C)(O)CC(=O)NCCn1ccc2ncnc(Nc3ccc(Oc4cccc(C(F)(F)F)c4)c(Cl)c3)c21
Summary of the method: as §1

[11] = compound: CC(C)C1=C2N=C(C=C(N2N=C1)NCC3=CC=CC=C3)NCCCCCCN
Summary of the method: as §1

[12] = compound: CC1=C(C(CC(=O)N1)C2=CC=C(C=C2)C(F)(F)F)C(=O)NC3=C(C=C4C(=C3)C=NN4)F
Summary of the method: as §1

[13] = compound: CC1=C(C2=C(C=C1)C(=O)C3=CC=CC=C3N2CCCN)C
Summary of the method: as §1

[14] = compound: CC1=C(C=C(C=C1)NC(=O)C2=CC(=CC=C2)N(C)C)NC(=O)C3=CC=C(C=C3)O
Summary of the method: as §1

[15] = compound: CC1=CC=C(C=C1)SC2=C3C=C(SC3=CN=C2)C(=O)N
Summary of the method: as §1

[16] = compound: CC1=C(C=C(C=C1)NC(=O)C2=CC(=CC=C2)C(C)(C)C#N)NC3=CC4=C(C=C3)N=CN(C4=O)C
Summary of the method: as §1

Measured: log2 fold change

TPK1 (UniProt Q9H3S4)
inactive: erlotinib -0.105 | [1] -0.135 | [2] -0.018 | [3] 0.095 | [4] 0.037 | [5] -0.061 | [6] -0.069 | [7] 0.037 | [8] 0.075 | IRAK-1-4 Inhibitor I -0.013 | ibrutinib 0.193 | [9] 0.01 | ralimetinib -0.047 | [10] -0.027 | [11] 0.008 | [12] 0.06 | [13] -0.017 | [14] -0.04 | [15] 0.014

TOR1AIP1 (UniProt Q5JTV8)
inactive: erlotinib -0.205 | [1] 0.114 | [2] 0.093 | [3] -0.358 | [4] 0.019 | [6] 0.089 | ibrutinib -0.064 | [9] 0.02 | [11] 0.252 | [12] -0.392 | [13] 0.146 | [15] -0.083

TPT1 (UniProt P13693)
inactive: erlotinib 0.031 | [1] -0.021 | [2] 0.022 | [3] 0.001 | [4] -0.014 | [5] -0.001 | [6] -0.005 | [7] -0.003 | [8] 0.023 | IRAK-1-4 Inhibitor I 0.008 | ibrutinib -0.012 | [9] 0.005 | ralimetinib -0.015 | [10] -0.015 | [11] -0.001 | [12] -0.017 | [13] -0.006 | [16] 0.033 | [14] 0.011 | [15] -0.005

TPM3 isoform 3 (UniProt P06753)
inactive: erlotinib -0.074 | [1] -0.007 | [2] -0.076 | [3] -0.006 | [5] -0.033 | [6] 0.08 | [7] 0.084 | [8] -0.068 | IRAK-1-4 Inhibitor I -0.016 | [9] 0.066 | ralimetinib 0.145 | [10] 0.093 | [11] -0.125 | [13] 0.005 | [16] -0.157 | [14] 0.012 | [15] -0.032

TMEM70 (UniProt Q9BUB7)
inactive: erlotinib -0.018 | [1] -0.003 | [2] -0.106 | [3] 0.03 | [4] 0.038 | [5] -0.073 | [6] 0.011 | [7] 0.006 | [8] -0.028 | IRAK-1-4 Inhibitor I 0.086 | ibrutinib 0.001 | [9] -0.026 | ralimetinib 0.012 | [10] -0.063 | [11] -0.002 | [12] -0.01 | [13] 0.01 | [16] 0.103 | [14] 0.058 | [15] 0.003

TNRC6A (UniProt Q8NDV7)
inactive: erlotinib -0.029 | [1] 0.078 | [2] 0.077 | [3] -0.097 | [4] 0.088 | [6] -0.021 | [7] -0.024 | [8] 0.127 | ibrutinib 0.006 | [9] 0.007 | [11] -0.081 | [12] 0.092 | [13] 0.031 | [16] -0.204 | [15] -0.026

TMEM35B (UniProt Q8NCS4)
inactive: erlotinib -0.097 | [1] 0.041 | [2] -0.029 | [3] -0.044 | [5] -0.007 | [6] -0.027 | IRAK-1-4 Inhibitor I -0.071 | [9] 0.051 | ralimetinib 0.099 | [10] -0.031 | [11] 0.037 | [16] 0.109 | [14] -0.056 | [15] 0.153

TMEM248 (UniProt Q9NWD8)
inactive: erlotinib 0.013 | [1] 0.032 | [2] -0.082 | [3] 0.035 | [5] -0.148 | [6] -0.062 | [7] -0.009 | [8] 0.191 | IRAK-1-4 Inhibitor I 0.137 | ralimetinib -0.261 | [10] -0.02 | [11] -0.233 | [12] 0.138 | [13] -0.021 | [16] 0.122 | [14] -0.026

TMEM8A (UniProt Q9HCN3)
inactive: erlotinib -0.106 | [1] -0.076 | [2] 0.185 | [3] 0.088 | [4] -0.344 | [6] 0.079 | [7] 0.043 | [8] 0.001 | ibrutinib 0.267 | [9] -0.015 | [11] -0.064 | [15] 0.035

TOMM22 (UniProt Q9NS69)
inactive: erlotinib 0.008 | [1] 0.009 | [2] 0.016 | [3] -0.011 | [4] -0.015 | [5] -0.022 | [6] 0.091 | [7] 0.017 | [8] 0.037 | IRAK-1-4 Inhibitor I 0.004 | ibrutinib -0.034 | [9] -0.015 | ralimetinib -0.001 | [10] -0.047 | [11] 0.007 | [12] -0.029 | [13] -0.008 | [16] 0.086 | [14] -0.014 | [15] 0.019

TOR1B (UniProt O14657)
inactive: erlotinib -0.033 | [1] -0.034 | [2] 0.013 | [3] -0.008 | [4] -0.015 | [5] -0.082 | [6] -0.024 | [7] 0.018 | [8] -0.073 | IRAK-1-4 Inhibitor I 0.019 | ibrutinib 0.003 | [9] 0.006 | ralimetinib 0.016 | [10] 0.039 | [11] 0.012 | [12] -0.012 | [13] 0.015 | [16] 0.013 | [14] 0.01 | [15] -0.004

TMPPE (UniProt Q6ZT21)
inactive: erlotinib -0.077 | [1] 0.006 | [2] 0.004 | [3] 0.031 | [4] 0.05 | [5] -0.023 | [6] -0.011 | [7] 0 | [8] 0.028 | IRAK-1-4 Inhibitor I 0.016 | ibrutinib 0.035 | [9] -0.001 | ralimetinib 0.065 | [10] 0.023 | [11] -0.01 | [12] -0.008 | [16] -0.021 | [14] -0.008 | [15] 0.04

TNS1 (UniProt Q9HBL0)
inactive: [4] 0.054 | [7] 0.186 | [8] -0.031 | ibrutinib -0.121 | [12] 0.061 | [16] -0.053

TNNC1 (UniProt P63316)
inactive: [4] 0.572 | ibrutinib 0.402

TMEM267 (UniProt Q0VDI3)
inactive: erlotinib 0.08 | [2] 0.046 | [4] -0.042 | [5] -0.088 | IRAK-1-4 Inhibitor I -0.013 | ibrutinib 0.071 | ralimetinib 0.066 | [10] 0.043 | [11] -0.028 | [12] -0.099 | [16] 0.217 | [14] 0.064

TMEM189 (UniProt A5PLL7)
inactive: erlotinib -0.11 | [2] 0.033 | [4] -0.029 | [5] 0.057 | [7] -0.019 | [8] 0.042 | IRAK-1-4 Inhibitor I -0.026 | ibrutinib 0.059 | [9] 0.046 | ralimetinib 0.046 | [10] -0.026 | [11] -0.017 | [12] 0.026 | [13] -0.022 | [16] 0.108 | [14] -0.015 | [15] -0.123

TNFAIP3 (UniProt P21580)
inactive: erlotinib 0.018 | [2] 0.024 | [4] 0.03 | [5] -0.049 | [7] -0.296 | [8] 0.09 | IRAK-1-4 Inhibitor I 0.047 | ibrutinib -0.123 | [9] -0.1 | ralimetinib -0.056 | [10] 0.005 | [11] -0.045 | [12] 0.003 | [13] 0.016 | [16] -0.035 | [14] 0.068 | [15] 0.053

Source: the supplement of paper PMC10849652
